Patent publication US4477458A, “Thiazolidine derivatives and their mucolytic compositions and methods” (Camillo Corvi S.p.A., priority 1981, dated 1984)

Test system: mucus of sound animals (rabbits)
Assay: Fluidizing activity - viscosity of mucus of sound animals (Contraves Rehomat microviscosimeter)
Format: in vivo, rabbit
Conditions: 20 mg/kg i.v.
Protocol: The pharmacological activity was measured by studying the effect on the compound (CO/1177) on:
(b) viscosity of mucus of sound animals (rabbits) and/or of animals made bronchitic experimentally by using, for the viscosimeter measures, a Contraves Rehomat microviscosimeter at 15 automatic scanning speeds;

O=C(O)c1ccccc1C(=O)N1CCSC1 [CO/1177, 2-(1,3-thiazolidin-3-yl)-carbonyl-benzoic acid (Na salt)]
Viscosity, time -24→0 (before administration) (speed 17.4 g/min): 9.56 cps
Viscosity, time -24→0 (before administration) (speed 25 g/min): 10.58 cps
Viscosity, time -24→0 (before administration) (speed 33.6 g/min): 9.20 cps
Viscosity, time -24→0 (before administration) (speed 44.3 g/min): 7.00 cps
Viscosity, time -24→0 (before administration) (speed 56.1 g/min): 7.50 cps
Viscosity, time -24→0 (before administration) (speed 77.9 g/min): 5.49 cps
Viscosity, time -24→0 (before administration) (speed 113.2 g/min): 3.61 cps
Viscosity, time -24→0 (before administration) (speed 152 g/min): 3.42 cps
Viscosity, time -24→0 (before administration) (speed 200 g/min): 3.48 cps
Viscosity, time -24→0 (before administration) (speed 266.8 g/min): 3.19 cps
Viscosity, time -24→0 (before administration) (speed 352 g/min): 3.05 cps

Where a name gives a salt, the structure may show the parent alone.
